PubChem BioAssay AID504793 – Drosophila RNAi Screening Center | 2011
The deposit covers about 23,000 reagents; shown is a random part of those that have a named target and a result. Of all reagents, 62 (0.27%) got an active call. 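Calls come from follow-up tests whose scores are not deposited, so confirmed genes may have low counts here; counts are not normalised per plate.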 Raw values are not corrected between plates. The numbers tell different reagents against one gene apart. Names joined by + are all predicted targets of the reagent. Reagent sequences are not shown.

Screen: 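Genes required for cells to halt at G2/M after double-strand DNA breaks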 (primary screen)
Cell system: Drosophila S2R+ cells
Knock-down reagent: long dsRNA against Drosophila genes, about 0.25 µg dsRNA per well
Duration: 4 days of dsRNA, then 4 hours of drug before read-out
Conditions: doxorubicin 0.5 µM for 4 hours to cause double-strand breaks, in cells also given a low, harmless dose of dsRNA against nbs to sensitise the assay
Detection: 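Mitotic index as the number of phospho-histone H3-positive cells in each well following doxorubicin, given as raw counts without normalisation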
Reading the numbers: mitotic cells: higher = more cells in mitosis, weaker G2 arrest
Call rule: 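Genes are called active only when high mitotic counts were reproduced with independent dsRNAs and mitosis was checked for delay without damage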
Meaning of the calls: active = confirmed in follow-up tests; inactive = not confirmed

no.	target	reagent no.	mitotic cells, replicate 1	mitotic cells, replicate 2	call
1	gbb	1	6		inactive
2	gbb	2	7		inactive
3	CG2694	1	6		inactive
4	Nlg1	1	6		inactive
5	Nlg1	2	5		inactive
6	Nlg1	3	8		inactive
7	Nlg1	4	2		inactive
8	Myd88	1	6		inactive
9	Myd88	2	3		inactive
10	Cpr47Ef	1	8		inactive
11	Cpr47Ef	2	36		inactive
12	Cpr47Ef	3	5		inactive
13	Cpr47Ef	4	10		inactive
14	tou	1	7		inactive
15	tou	2	9		inactive
16	l(2)gl	1	7		inactive
17	l(2)gl	2	4		inactive
18	Cyp6a14 (retired record)	1	5		inactive
19	Cyp6a14 (retired record)	2	5		inactive
20	CNPYb	1	5		inactive
21	Sox14	1	8		inactive
22	Sox14	2	9		inactive
23	CG31437	1	24	15	inactive
24	CG15219	1	3		inactive
25	Sk2	1			inactive
26	Uvrag	1	5		inactive
27	Rab9Db + Rab9Fa	1	8		inactive
28	Dus3	1	6		inactive
29	Dus3	2	1		inactive
30	CG6403	1	14		inactive
31	CG33278	1	3		inactive
32	CG33278	2	9		inactive
33	CG3014	1			inactive
34	RabX4	1	9		inactive
35	RabX4	2	6		inactive
36	CG31855	1	6		inactive
37	CG31855	2	7		inactive
38	beta4GalNAcTB	1	10		inactive
39	CG42457 (retired record) + cpo	1	7		inactive
40	CG42457 (retired record) + cpo	2	14		inactive
41	CG42457 (retired record) + cpo	3	7		inactive
42	sni	1	5		inactive
43	sni	2	3		inactive
44	Atg8a	1	8		inactive
45	Atg8a	2	6		inactive
46	CG8840	1	4		inactive
47	CG9663	1	5		inactive
48	shi	1	6		inactive
49	shi	2	5		inactive
50	dmGlut	1	9		inactive
51	dmGlut	2	4		inactive
52	CG15153	1	9		inactive
53	CG15153	2	7		inactive
54	Polr1E	1	11		inactive
55	Polr1E	2	6		inactive
56	VhaM9.7-d	1	6		inactive
57	Coq4 + frc	1	8		inactive
58	Coq4 + frc	2	8		inactive
59	Clic	1	7		inactive
60	CG17019	1	5		inactive
61	HUWE1	1	18		inactive
62	CG10252	1	5		inactive
63	Atat	1	10		inactive
64	CG13045	1	3		inactive
65	CG13045	2			inactive
66	CG32668	1	2		inactive
67	PK2-R1	1	3		inactive
68	PK2-R1	2	5		inactive
69	Qsox3	1	11		inactive
70	mei-9	1	10		inactive
71	ClC-c	1	4		inactive
72	CG8172	1	14		inactive
73	CG8172	2	5		inactive
74	CG8172	3	7		inactive
75	CG32069 + Blos2	1	1		inactive
76	Cyp6a13	1	4		inactive
77	VGlut	1	7		inactive
78	VGlut	2	9		inactive
79	CG3609	1	5		inactive
80	CG3609	2	3		inactive
81	puf	1	12		inactive
82	Mtp	1	6		inactive
83	CG8541	1	3		inactive
84	CG8541	2	9		inactive
85	Not10	1	5		inactive
86	CG16782	1	4		inactive
87	Dscam2	1	1		inactive
88	Dscam2	2	9		inactive
89	Dscam2	3	10		inactive
90	Dscam2	4	9		inactive
91	Dscam2	5	7		inactive
92	sav	1	6		inactive
93	sav	2	1		inactive
94	Tspo	1	4		inactive
95	Gr93c	1	12		inactive
96	lsn	1	11		inactive
97	lsn	2	12		inactive
98	mei-41	1	16		inactive
99	CG9890	1	6		inactive
100	CG9890	2	3		inactive
101	Mhc	1	1		inactive
102	Mhc	2	3		inactive
103	b	1	3		inactive
104	b	2	10		inactive
105	fon	1	2		inactive
106	PXo	1	8		inactive
107	Ncoa6	1	5		inactive
108	Ncoa6	2	10		inactive
109	CG2616	1	2		inactive
110	CG2616	2	1		inactive
111	CG1662	1	5		inactive
112	CG13088	1	8		inactive
113	CG15128	1	8		inactive
114	SREBP	1	3		inactive
115	temp	1	7		inactive
116	CG12278	1	1		inactive
117	CG10993	1	9		inactive
118	Idh3b	1	5		inactive
119	Idh3b	2	7		inactive
120	nompA	1	9		inactive
121	CG32532	1	4		inactive
122	CG32532	2	8		inactive
123	CG32532	3	10		inactive
124	Slh	1	8		inactive
125	CCAP-R	1	9		inactive
126	CCAP-R	2	8		inactive
127	CCAP-R	3	6		inactive
128	CG31715	1	12		inactive
129	Spx	1	10		inactive
130	Spx	2	8		inactive
131	P5cr-2	1	11		inactive
132	dpr19	1	6		inactive
133	RhoGAP71E	1	5		inactive
134	RhoGAP71E	2	4		inactive
135	RhoGAP71E	3	5		inactive
136	CG14309	1	9		inactive
137	Drgx	1	12		inactive
138	Drgx	2	9		inactive
139	Drgx	3	2		inactive
140	yellow-g	1	7		inactive

24 entries from above in another layout:
CG10993
- mitotic cells, replicate 1: 9
- call: inactive

Idh3b #1
- mitotic cells, replicate 1: 5
- call: inactive

Idh3b #2
- mitotic cells, replicate 1: 7
- call: inactive

nompA
- mitotic cells, replicate 1: 9
- call: inactive

CG32532 #1
- mitotic cells, replicate 1: 4
- call: inactive

CG32532 #2
- mitotic cells, replicate 1: 8
- call: inactive

CG32532 #3
- mitotic cells, replicate 1: 10
- call: inactive

Slh
- mitotic cells, replicate 1: 8
- call: inactive

CCAP-R #1
- mitotic cells, replicate 1: 9
- call: inactive

CCAP-R #2
- mitotic cells, replicate 1: 8
- call: inactive

CCAP-R #3
- mitotic cells, replicate 1: 6
- call: inactive

CG31715
- mitotic cells, replicate 1: 12
- call: inactive

Spx #1
- mitotic cells, replicate 1: 10
- call: inactive

Spx #2
- mitotic cells, replicate 1: 8
- call: inactive

P5cr-2
- mitotic cells, replicate 1: 11
- call: inactive

dpr19
- mitotic cells, replicate 1: 6
- call: inactive

RhoGAP71E #1
- mitotic cells, replicate 1: 5
- call: inactive

RhoGAP71E #2
- mitotic cells, replicate 1: 4
- call: inactive

RhoGAP71E #3
- mitotic cells, replicate 1: 5
- call: inactive

CG14309
- mitotic cells, replicate 1: 9
- call: inactive

Drgx #1
- mitotic cells, replicate 1: 12
- call: inactive

Drgx #2
- mitotic cells, replicate 1: 9
- call: inactive

Drgx #3
- mitotic cells, replicate 1: 2
- call: inactive

yellow-g
- mitotic cells, replicate 1: 7
- call: inactive
